Experimental data published in patent publication US20050090517A1, “Pharmaceutical combinations of cox-2 inhibitors and opiates” (priority 2002, published 2005).
At least one structure is not confirmed: it was looked up by name or label, or the drawing left a doubt.

Test system: reperfusion hyperalgesia of the tail of Sprague-Dawley rats
Experiment: Reperfusion hyperalgesia of the rat tail following transient ischaemia (tail flick latency, antihyperalgesic index)
Assay type: in vivo
Settings: oral, three doses each (FIG. 2); paracetamol limited to 266 mg/kg

In the case of `Cc1cnc(NC(=O)C2=C(O)c3ccccc3S(=O)(=O)N2C)s1` [Meloxicam, meloxicam], the “Antihyperalgesic activity of each agent administered separately, in words” value is reported as “dose-dependent antihyperalgesia activity”.
